Results are given in words; binding and its absence hold for the method and conditions named. For part of these data: Binding seen in cells or lysates may run through a third protein. Some binding calls cover weakened binding; strength is not graded here. Values belong to the substance of their own block, whether it stands above or below them.
Key:
[1] = target: FLAG-tagged Stat5a and MYC-tagged Stat5a (full-length Stat5a in pCMV-3FLAG and pCMV-3MYC) (UniProt P42229); assay: co-IP; PC-3 cells co-transfected with FLAG-Stat5a, MYC-Stat5a and PrlR; serum-starved 16 h, IST5, IST5-M or vehicle 2 h, Prl 10 nM 30 min; whole-cell lysates precipitated with anti-MYC mAb, blotted with anti-FLAG mAb
[2] = target: STAT5A-N642H-eYFP (constitutive activated Stat5 by N642H mutation) (UniProt P42229); assay: native gel or EMSA; blue native PAGE (NativePAGE Bis-Tris 4-16%, 4 °C) of cleared lysates of transfected CWR22Rv1 cells; cells serum-starved 16 h, vanadate 1 mM 2 h, vehicle, IST5 or IST5-M (1 µM) 6 h, Prl 10 nM 1 h; monomer and dimer told apart by molecular weight through eYFP fluorescence in the gel
[3] = target: STAT5A-eYFP (Stat5 wild type) (UniProt P42229); assay: as above

Protein sequences, listed by entry. Tags and fused reporters are not part of them. Lines headed by an entry give the natural chain unless they say otherwise; changes in a name come on top.
UniProt P42229: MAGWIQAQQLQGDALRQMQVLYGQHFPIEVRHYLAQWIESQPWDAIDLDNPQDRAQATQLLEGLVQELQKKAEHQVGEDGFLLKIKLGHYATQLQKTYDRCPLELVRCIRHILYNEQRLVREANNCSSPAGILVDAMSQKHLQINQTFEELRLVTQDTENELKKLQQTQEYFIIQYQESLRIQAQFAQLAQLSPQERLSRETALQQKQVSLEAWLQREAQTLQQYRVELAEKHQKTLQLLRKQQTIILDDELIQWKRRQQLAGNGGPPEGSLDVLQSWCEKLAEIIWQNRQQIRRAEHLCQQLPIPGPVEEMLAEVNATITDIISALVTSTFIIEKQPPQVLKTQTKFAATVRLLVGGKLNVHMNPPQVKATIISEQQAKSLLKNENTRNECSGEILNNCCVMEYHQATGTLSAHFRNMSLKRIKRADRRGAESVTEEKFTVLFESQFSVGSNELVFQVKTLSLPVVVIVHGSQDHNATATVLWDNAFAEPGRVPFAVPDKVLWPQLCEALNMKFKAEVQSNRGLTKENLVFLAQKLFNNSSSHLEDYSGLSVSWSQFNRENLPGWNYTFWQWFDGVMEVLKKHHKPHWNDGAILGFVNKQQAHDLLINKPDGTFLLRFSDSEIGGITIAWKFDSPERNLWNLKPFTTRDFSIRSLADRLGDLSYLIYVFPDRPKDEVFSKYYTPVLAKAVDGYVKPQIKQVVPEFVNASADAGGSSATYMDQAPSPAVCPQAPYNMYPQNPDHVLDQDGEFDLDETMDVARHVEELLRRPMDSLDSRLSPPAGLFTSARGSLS

binding [1]: binds
Substance: FLAG-tagged Stat5a and MYC-tagged Stat5a (full-length Stat5a in pCMV-3FLAG and pCMV-3MYC) (from UniProt P42229 1-794)

binding [2]: binds
Substance: STAT5A-N642H-eYFP (constitutive activated Stat5 by N642H mutation) (from UniProt P42229 1-794)

binding [3]: binds
Substance: STAT5A-eYFP (Stat5 wild type) (from UniProt P42229 1-794)

Source: paper PMC7724566, “Prospects for Clinical Development of Stat5 Inhibitor IST5-002: High Transcriptomic Specificity in Prostate Cancer and Low Toxicity In Vivo” (Cancers, 2020)
